Laboratory results as given in PubChem BioAssay AID330 (DTP/NCI, 2004).
The list shows only some results of the screen, not a fair sample: it is rich in T/C values a quarter to a half above the control, in often repeated tests (any T/C) and in doses without a T/C. Other doses and runs of a compound stand elsewhere. T/C is the treated group as % of the vehicle group. Some entries give survivors of the animals treated and no T/C: the source holds a T/C of zero for them, seemingly a mark for toxic or unscored doses. Some doses without a T/C left all or most animals alive at the check, yet need not have been tolerated: survival well below the control is almost never listed, so the zero probably covers shortened survival too. Counts of survivors are from the toxicity check (mostly the fifth day) where no day follows; animals may have died later. Schedule codes are those of the source, read here as Q, the interval in days (D) or hours (H), X, the number of doses. Some entries hold several experiments; their values stand side by side, smallest first. For survival time, this PubChem deposit counts one and a half times the control or more as active, and values a quarter to a half above the control carry no call in these data; other NCI protocols may use other cut-offs. Some T/C values are followed by the survivors on the day toxicity was checked, most often the fifth; where none is given, no animal had died by that day.

Test system: P388 leukemia ip, CD2F1 mice, survival T/C
Assay: NCI In Vivo Anticancer Drug Screen. Data for tumor model P388 Leukemia (intraperitoneal) in CD2F1 (CDF1) mice
Conditions: T/C endpoint: median survival time, higher T/C = longer survival
[1] = dose: 25.0 mg/kg/injection, schedule: Q01DX009 (ip), vehicle: saline with Tween-80
[2] = dose: 50.0 mg/kg/injection, schedule: Q01DX009 (ip), vehicle: saline with Tween-80
[3] = dose: 100.0 mg/kg/injection, schedule: Q01DX009 (ip), vehicle: saline with Tween-80
[4] = dose: 200.0 mg/kg/injection, schedule: Q01DX009 (ip), vehicle: saline with Tween-80
[5] = dose: 200.0 mg/kg/injection, schedule: Q01DX005 (ip), vehicle: saline with Tween-80
[6] = dose: 25.0 mg/kg/injection, schedule: Q01DX009 (ip), vehicle: Klucel (hydroxypropylcellulose) (HPC)
[7] = dose: 50.0 mg/kg/injection, schedule: Q01DX009 (ip), vehicle: Klucel (hydroxypropylcellulose) (HPC)
[8] = dose: 30.0 mg/kg/injection, schedule: Q01DX005 (ip), vehicle: saline with Tween-80
[9] = dose: 200.0 mg/kg/injection, schedule: Q04DX002 (ip), vehicle: Klucel (hydroxypropylcellulose) (HPC)
[10] = dose: 50.0 mg/kg/injection, schedule: Q01DX005 (ip), vehicle: saline with Tween-80
[11] = dose: 100.0 mg/kg/injection, schedule: Q01DX005 (ip), vehicle: saline with Tween-80
[12] = dose: 12.5 mg/kg/injection, schedule: Q01DX009 (ip), vehicle: Klucel (hydroxypropylcellulose) (HPC)
[13] = dose: 120.0 mg/kg/injection, schedule: Q01DX005 (ip), vehicle: Klucel (hydroxypropylcellulose) (HPC)
[14] = dose: 100.0 mg/kg/injection, schedule: Q01DX001 (ip), vehicle: saline with Tween-80
[15] = dose: 200.0 mg/kg/injection, schedule: Q01DX001 (ip), vehicle: saline with Tween-80

## CCCCCCCCCCCCCCCC[N+](C)(C)Cc1cnc[nH]1
dose: 3.12 mg/kg/injection, schedule: Q01DX009 (ip), vehicle: saline with Tween-80
  T/C: 137 and 140 % of control
dose: 6.25 mg/kg/injection, schedule: Q01DX009 (ip), vehicle: saline with Tween-80
  T/C: 134 and 137 % of control
dose: 12.5 mg/kg/injection, schedule: Q01DX009 (ip), vehicle: saline with Tween-80
  T/C: 98 [5 of 6 alive], 123, 130 [4 of 6 alive], 138 % of control
[1]
  survivor count: 2 of 6 and 4 of 6
[2]
  survivor count: 0 of 6 and 1 of 6
[3]
  survivor count: 0 of 6
[4]
  survivor count: 0 of 6

## COc1ccc2[nH]cc(CCN(C)C)c2c1
[1]
  T/C: 125 % of control

## COc1ccc2c(Cl)ccnc2c1OC
[5]
  survivor count: 0 of 6

## Cc1ccc(NC(=S)SCc2ccc(Cl)c(Cl)c2)cc1Br
dose: 50.0 mg/kg/injection, schedule: Q01DX009 (ip), vehicle: suspension in saline
  survivor count: 4 of 6
dose: 100.0 mg/kg/injection, schedule: Q01DX009 (ip), vehicle: suspension in saline
  survivor count: 5 of 6

## COc1cc(N=Nc2ccccc2)cc(/C=N\NC(=S)Nc2ccc(C)cc2)c1O
[5]
  survivor count: 0 of 6

## C1=Nc2ccccc2/C1=C/c1c[nH]c2ccccc12
dose: 400.0 mg/kg/injection, schedule: Q01DX005 (ip), vehicle: saline with Tween-80
  survivor count: 1 of 6

## CS(=O)(=O)CS(=O)CS(=O)CS(=O)CC(NC(=O)CCC(N)C(=O)O)C(=O)O (stereo not given)
dose: 200.0 mg/kg/injection, schedule: Q01DX005 (ip), vehicle: suspension in saline
  survivor count: 3 of 5

## O=S1(=O)CCN(C2CCCC2)CC1
[6]
  survivor count: 6 of 6
[7]
  survivor count: 6 of 6
dose: 100.0 mg/kg/injection, schedule: Q01DX009 (ip), vehicle: Klucel (hydroxypropylcellulose) (HPC)
  survivor count: 6 of 6
dose: 200.0 mg/kg/injection, schedule: Q01DX009 (ip), vehicle: Klucel (hydroxypropylcellulose) (HPC)
  survivor count: 6 of 6

## CC(C)(O)C1COC2=C1C(=O)c1ccccc1C2=O (stereo not given)
dose: 200.0 mg/kg/injection, schedule: Q01DX009 (ip), vehicle: other
  survivor count: 0 of 6
dose: 400.0 mg/kg/injection, schedule: Q01DX009 (ip), vehicle: other
  survivor count: 0 of 6

## COc1ccc2oc3c(ccc[n+]3C)c(=O)c2c1
[8]
  T/C: 132 % of control
dose: 60.0 mg/kg/injection, schedule: Q01DX005 (ip), vehicle: saline with Tween-80
  T/C: 126 and 130 % of control
dose: 120.0 mg/kg/injection, schedule: Q01DX005 (ip), vehicle: saline with Tween-80
  T/C: 133 and 134 % of control
dose: 240.0 mg/kg/injection, schedule: Q01DX005 (ip), vehicle: saline with Tween-80
  T/C: 127, 130, 138 % of control
dose: 480.0 mg/kg/injection, schedule: Q01DX005 (ip), vehicle: saline with Tween-80
  survivor count: 3 of 6

## CCCCNC1c2ccccc2CCC1O (stereo not given)
[9]
  survivor count: 1 of 6
dose: 400.0 mg/kg/injection, schedule: Q01DX001 (ip), vehicle: Klucel (hydroxypropylcellulose) (HPC)
  survivor count: 0 of 6
dose: 400.0 mg/kg/injection, schedule: Q04DX002 (ip), vehicle: Klucel (hydroxypropylcellulose) (HPC)
  survivor count: 0 of 6

## Cn1cnc2c(F)ncnc21
dose: 200.0 mg/kg/injection, schedule: Q01DX005 (ip), vehicle: Klucel (hydroxypropylcellulose) (HPC)
  survivor count: 0 of 6

## Cc1ccc(NC2=C([n+]3ccc(C)cc3)C(=O)c3ccccc3C2=O)cc1
[10]
  survivor count: 0 of 6
[11]
  survivor count: 0 of 6
[5]
  survivor count: 0 of 6

## C=C1Sc2ccccc2N1C
[6]
  T/C: 125 % of control
[7]
  survivor count: 3 of 6

## C/C(=N\NC(=S)N1CCN(c2ccccc2)CC1)c1cnccn1
dose: 25.0 mg/kg/injection, schedule: Q01DX005 (ip), vehicle: saline with Tween-80
  survivor count: 6 of 6
[10]
  survivor count: 6 of 6
[11]
  survivor count: 1 of 6
[5]
  survivor count: 0 of 6

## CC(C)CCSC1=CC(=O)c2ccccc2C1=O
[2]
  survivor count: 4 of 6

## C(=NCCN=CC1CCCC[N-]1)C1CCCC[N-]1.[Cu+2].[O-][Cl+3]([O-])([O-])O (stereo not given)
[2]
  survivor count: 1 of 6
[3]
  survivor count: 0 of 6
[4]
  survivor count: 0 of 6

## CCN(CC)[P+](c1cc(OC)ccc1OC)(N(CC)CC)N(CC)CC
dose: 6.25 mg/kg/injection, schedule: Q01DX009 (ip), vehicle: Klucel (hydroxypropylcellulose) (HPC)
  T/C: 130 % of control [5 of 6 alive]
[12]
  T/C: 139 % of control
  survivor count: 6 of 6
[7]
  survivor count: 0 of 6

## CCOC(=O)Cn1/c(=N/N=C/c2ccc([N+](=O)[O-])o2)sc2cc(OC)ccc21
dose: 15.0 mg/kg/injection, schedule: Q01DX005 (ip), vehicle: saline with Tween-80
  survivor count: 6 of 6
[8]
  survivor count: 6 of 6
dose: 60.0 mg/kg/injection, schedule: Q01DX005 (ip), vehicle: Klucel (hydroxypropylcellulose) (HPC)
  survivor count: 5 of 6
[13]
  survivor count: 6 of 6
dose: 240.0 mg/kg/injection, schedule: Q01DX005 (ip), vehicle: Klucel (hydroxypropylcellulose) (HPC)
  survivor count: 4 of 6

## O=S(=O)(CC(O)C(Cl)(Cl)Cl)NNc1ccccc1 (stereo not given)
dose: 200.0 mg/kg/injection, schedule: Q01DX009 (ip), vehicle: saline
  survivor count: 0 of 6

## CC1=CCN(C)C(C#N)C1 (stereo not given)
dose: 50.0 mg/kg/injection, schedule: Q01DX005 (ip), vehicle: saline
  survivor count: 3 of 5
dose: 100.0 mg/kg/injection, schedule: Q01DX005 (ip), vehicle: saline
  survivor count: 0 of 5
dose: 200.0 mg/kg/injection, schedule: Q01DX005 (ip), vehicle: saline
  survivor count: 0 of 5

## CC(=O)Nc1ccc(C(=O)O)c([N+](=O)[O-])c1
dose: 400.0 mg/kg/injection, schedule: Q01DX009 (ip), vehicle: Klucel (hydroxypropylcellulose) (HPC)
  survivor count: 4 of 6

## OCCCCC12CCC(CCCCO)(CC1)CC2
[9]
  survivor count: 6 of 6

## O=C(NN(C(=O)c1ccccc1)c1ccccc1)c1ccccc1
[5]
  survivor count: 5 of 5

## Cc1ccc(N(CN2C(=O)CCC2=O)CS(=O)(=O)c2ccc(Cl)cc2)cc1
[13]
  survivor count: 5 of 6

## Cc1sc(C)c2c1C[Se]Cc1c(C)sc(C)c1C[Se]C2
[14]
  survivor count: 6 of 6
[15]
  survivor count: 6 of 6

## Cn1c([N+](=O)[O-])cnc1CSC(=S)N1CCN(C(=S)SCc2ncc([N+](=O)[O-])n2C)CC1
dose: 400.0 mg/kg/injection, schedule: Q01DX009 (ip), vehicle: saline with Tween-80
  survivor count: 0 of 6 and 4 of 5

## Cc1nnc2c3nccn3ccn12
[14]
  survivor count: 3 of 6
[15]
  survivor count: 0 of 6
dose: 400.0 mg/kg/injection, schedule: Q01DX001 (ip), vehicle: saline with Tween-80
  survivor count: 0 of 6
